According to the supplement of paper PMC12889115:
The other results are listed elsewhere or left out. These are raw signals, not scaled to a control.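 In the initial screen, polymyxin B was used at a concentration that permeabilizes Salmonella's outer membrane but not its inner membrane. Maximum growth was set by DMSO wells with or without polymyxin B. Since plates varied, data were ranked per plate, and compounds giving the lowest OD600 advanced as hits.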

Test system: Salmonella enterica serovar Typhimurium SL1344
Experiment: bacterial growth OD600 after 18 h with compound and polymyxin B; higher = more bacterial growth (less inhibition)
Conditions: 50 µM, Mueller-Hinton broth

| Structure (SMILES) | bacterial growth OD600 (polymyxin B 0.75 µg/mL) | bacterial growth OD600 (polymyxin B 1 µg/mL) |
| --- | --- | --- |
| CSc1ccc(C(=O)N2CCOC(CCN(C)C)C2)cc1 (centres undefined) | 0.823 | – |
| O=C(/C=C/c1ccc(F)cc1)NCC1CCC2(CCN(CCCc3ccccc3)CC2)O1 (centres undefined) | 0.03 | – |
| CCOc1ccccc1CN1CCN(Cc2ccc(C)cc2)CC1CCO (centres undefined) | – | 0.864 |
| CC#CC(=O)NC1CC(C)(C)Cc2c1cnn2-c1ccc(OC)cc1 (centres undefined) | – | 0.93 |
| CC(c1ccon1)N(C)C(=O)c1coc(COc2ccccc2)n1 (centres undefined) | – | 0.997 |
| CCOC(=O)N1CCN(C(=O)c2ccc(N3CCC(NC(C)c4cn(C)nc4C)CC3)cc2)CC1 (centres undefined) | 0.83 | – |
| COc1ccccc1CCNC(=O)Cc1ccc(N2CCC(NCc3nonc3C)CC2)cc1 | 0.791 | – |
| C=CCOc1cccc(C(=O)N2CCC(CC3CCCCO3)(C(=O)OCC)CC2)c1 (centres undefined) | – | 0.885 |
| CC(=O)c1ccc(NC(=O)N2CCc3onc(-c4ccccc4F)c3C2)cc1 | 0.715 | – |
| Cc1ccccc1CC(C1CCN(C(=O)/C=C/c2cccs2)CC1)N(C)C(=O)C1CCC1 (centres undefined) | 0.001 | – |
| COc1ccc(CN2CCC(C(Cc3ccccc3F)N(C)Cc3cn(C)nc3C)CC2)c(O)c1 (centres undefined) | 0.943 | – |
| COC(=O)C1CCCCN1C(=O)CCc1nnc(CCc2cccc(OC)c2)o1 (centres undefined) | – | 0.911 |
| O=C(NC1CC1)C1CCN(C2CCN(C(=O)c3csc4c3CCCC4)CC2)CC1 | – | 0.87 |
| CN(CC1CCCN(CCc2ccccc2F)C1)C(=O)c1ccc2nccnc2c1 (centres undefined) | – | 1.05 |
| C=CCC(O)(CC=C)CNC1CCN(c2ccc(NC(=O)c3ccc(C)cc3C)cc2)CC1 | 0.736 | – |
| CN(Cc1cccnc1)Cc1cnc(S(C)(=O)=O)n1CC1CCCO1 (centres undefined) | – | 0.906 |
| COc1ccc(OC)c(CN2CC[C@@H](N3CCN(c4ccccn4)CC3)[C@H](O)C2)c1 | 0.765 | – |
| CCC(=O)N1CCCC(CCc2ccccc2C)C1 (centres undefined) | 0.608 | – |
| Cc1oc(-c2cc3c(cc2Cl)OCO3)nc1CN(CCO)Cc1cccs1 | – | 0.68 |

Three entries from above, sorted by length of the SMILES, falling.

| Structure (SMILES) | bacterial growth OD600 (polymyxin B 0.75 µg/mL) | bacterial growth OD600 (polymyxin B 1 µg/mL) |
| --- | --- | --- |
| COc1ccc(OC)c(CN2CC[C@@H](N3CCN(c4ccccn4)CC3)[C@H](O)C2)c1 | 0.765 | – |
| COC(=O)C1CCCCN1C(=O)CCc1nnc(CCc2cccc(OC)c2)o1 (centres undefined) | – | 0.911 |
| CC#CC(=O)NC1CC(C)(C)Cc2c1cnn2-c1ccc(OC)cc1 (centres undefined) | – | 0.93 |
